{
  "source": "patent US20230130066A1",
  "about": "“USE OF CYCLODEXTRINS IN DISEASES AND DISORDERS INVOLVING PHOSPHOLIPID DYSREGULATION” (priority 2017, published 2023)",
  "origin": "cited, not measured here",
  "conditions": "5% (w/w) HP-CD in phosphate-buffered isotonic saline, pH 7.4; cited from earlier work",
  "note": "At least one read-out could not be matched to a standard name with certainty.",
  "data": [
    {"substance": "2-hydroxypropyl-β-cyclodextrin [HP-β-CD]", "values": [
      {"measurement": "solubilization of cholesterol", "result": "preferentially solubilized cholesterol"}
    ]}
  ]
}
